At least one compound was matched to its structure with a doubt left.
Tests used:
Format in all cases: in vivo, mice
[1] = tested on: tyrosine hydroxylase phosphorylation at Ser40; assay: CNS phosphoprotein profile, TH; conditions: 3 mg/kg, 30 or 60 minutes, nucleus accumbens
Description: (§1) A comprehensive molecular phosphorylation study is also carried out to examine the central nervous system (CNS) profile of the compounds of Example 1 and Example 3. The extent of protein phosphorylation for selected key central nervous system proteins is measured in mice nucleus accumbens.
(§2) Mice were killed 30 minutes to 2 hours post-injection by focused microwave cranial irradiation, which preserves brain phosphoprotein as it exists at the time of death. The nucleus accumbens was then dissected from each mouse brain, sliced and frozen in liquid nitrogen. Samples were further prepared for phosphoprotein analysis via SDS-PAGE electrophoresis followed by phosphoprotein-specific immunoblotting, as described in Zhu H, et al., Brain Res. 2010 Jun. 25; 1342:11-23. Phosphorylation at each site was quantified, normalized to total levels of the protein (non-phosphorylated), and expressed as percent of the level of phosphorylation in vehicle-treated control mice.

[2] = tested on: ERK2 phosphorylation at Thr183 and Tyr185; assay: CNS phosphoprotein profile, ERK2; conditions: 3 mg/kg, nucleus accumbens
Description: as §1, §2

[3] = tested on: NR2B phosphorylation at Tyr1472; assay: CNS phosphoprotein profile, NR2B; conditions: 3 mg/kg, 30-60 minutes, nucleus accumbens
Description: as §1, §2

[4] = tested on: GluR1 phosphorylation at Ser845; assay: CNS phosphoprotein profile, GluR1; conditions: 3 mg/kg, nucleus accumbens
Description: as §1, §2

Compound: O=C1CN2c3c(cccc3[C@@H]3CN(CCCOc4ccc(F)cc4)CC[C@@H]32)N1 [Example 3, (6bR,10aS)-8-(3-(4-fluorophenoxy)propyl)-6b,7,8,9,10,10a-hexahydro-1H-pyrido[3′,4′:4,5]pyrrolo[1,2,3-de]quinoxalin-2(3H)-one]
- effect on tyrosine hydroxylase phosphorylation at Ser40 [1]: neither the compound of Example 1 nor of Example 3 has a significant effect
- ERK2 phosphorylation at Thr183 and Tyr185 [2]: slight decrease
- effect on NR2B phosphorylation at Tyr1472 [3]: neither the compound of Example 1 nor of Example 3 has a significant effect
- GluR1 phosphorylation at Ser845 [4]: slight increase
